According to PubChem BioAssay AID1671190 (National Center for Advancing Translational Sciences (NCATS), 2021):
The campaign covered roughly 580,000 compounds. About 6,100 (1.1%) were called active. Inconclusive means that the source gave no clear call. Such entries were picked first, then a sample of the others. Calls come from the whole dose curve; as a rule, active = well fitted inhibition curve with a large enough effect; inconclusive = small, poorly fitted or top-dose-only effect, or another doubt; inactive = no such curve, though single readings can be large or run the other way. A potency beside an inconclusive call is a rough fit, not a confirmed value.

Amino acid sequences for entries named in this document (tags omitted).
UniProt P18054, whole entry, looked up: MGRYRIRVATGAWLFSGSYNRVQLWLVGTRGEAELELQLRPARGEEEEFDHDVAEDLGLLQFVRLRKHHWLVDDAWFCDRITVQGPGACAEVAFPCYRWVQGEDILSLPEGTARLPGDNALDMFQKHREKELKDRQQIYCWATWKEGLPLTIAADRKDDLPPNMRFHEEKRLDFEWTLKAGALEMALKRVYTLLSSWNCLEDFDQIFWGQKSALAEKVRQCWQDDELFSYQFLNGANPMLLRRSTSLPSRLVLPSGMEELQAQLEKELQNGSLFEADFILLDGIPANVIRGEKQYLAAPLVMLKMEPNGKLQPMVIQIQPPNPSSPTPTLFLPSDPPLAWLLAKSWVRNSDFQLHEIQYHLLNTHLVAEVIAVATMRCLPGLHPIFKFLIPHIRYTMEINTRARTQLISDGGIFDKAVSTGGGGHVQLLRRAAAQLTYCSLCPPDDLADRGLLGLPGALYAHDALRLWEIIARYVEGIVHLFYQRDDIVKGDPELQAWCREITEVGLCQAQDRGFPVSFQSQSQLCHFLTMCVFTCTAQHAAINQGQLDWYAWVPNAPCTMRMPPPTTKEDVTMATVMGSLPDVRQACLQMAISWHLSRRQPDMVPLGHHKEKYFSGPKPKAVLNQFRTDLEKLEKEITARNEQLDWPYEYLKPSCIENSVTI

target: Polyunsaturated fatty acid lipoxygenase ALOX12 (Homo sapiens) (UniProt P18054); assay: Primary qHTS assay for inhibitors of human arachidonate 12S-lipoxygenase (ALOX12): Round 2; details: purified 12hLO, xylenol orange hydroperoxide absorbance; activity change, negative = inhibition: at 108 µM (top of the series) unless noted
Outline: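 Purified human 12hLO at 150 nM in 25 mM Hepes, 0.01% Triton X-100, pH 7.0, preincubated 15 min at room temperature with compound. Reaction started with 40 uM arachidonic acid, 30 min at room temperature. Hydroperoxide measured by Fe-xylenol orange, 573/405 nm absorbance ratio.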
% is set by controls: 0 for no effect and ±100 for the full control effect; potency is the fitted concentration of half-maximal effect.

| SMILES | activity change, negative = inhibition | Potency |
| --- | --- | --- |
| Cn1c(CN2CCCC2)nnc1C1CCN(C(=O)c2ccc(=O)[nH]c2)CC1 | inactive: -0.838% | – |
| COc1ccc(NC(=S)N(Cc2ccc(Cl)cc2)Cc2ccc(C(=O)O)cc2)cc1Cl | – | inconclusive: 100 µM [inhibitor, partial curve, poor fit] |
| COC(=O)[C@@]12C[C@@H](CC(=O)NCCC(C)C)C(=O)N(Cc3cccc4ccccc34)C1=CCC(C)(C)C2 | – | inconclusive: 31.6 µM [inhibitor, partial curve, poor fit] |
| Cc1ccc([C@H]2N[C@]3(CCCN(Cc4ccccc4)C3=O)[C@H]3C(=O)N(C)C(=O)[C@@H]23)cc1 | – | inconclusive: 15.8 µM [inhibitor, full curve, poor fit] |
| O=C(Cc1ccc(Cl)c(Cl)c1)NC1CCCCCC1 | inactive: -15.9% | – |
| Cc1ccc(-c2c[n+](CC(=O)N3c4ccccc4Sc4ccccc43)c3n2CCC3)cc1 | – | inconclusive: 50.1 µM [inhibitor, partial curve, poor fit] |
| CC(C)c1ccc(S(=O)(=O)c2ccc(NN)cc2)cc1 | – | inconclusive: 28.2 µM [inhibitor, partial curve, poor fit] |
| O=C(O)CCCN1CCCCCC1 | – | inconclusive: 35.5 µM [inhibitor, partial curve, poor fit] |
| O=C(CCSc1nc(-c2ccco2)cc(C(F)(F)F)n1)NCCc1ccccc1 | inactive: 328% | – |
| Cc1cc([N+](=O)[O-])nn1CC(=O)N1CCCc2ccccc21 | inactive: -1.99% | – |
| Clc1ccc(C2CC(c3ccco3)n3ncnc3N2)cc1Cl (stereo unspecified) | – | inconclusive: 35.5 µM [inhibitor, partial curve, poor fit] |
| COC(=O)C1=C(O)/C(=C/c2ccc(OCC(=O)Nc3ccccc3)cc2)N=C1C | – | active: 17.8 µM |
| O=C(O)CCn1cc(/C=C2\SC(=S)NC2=O)c(-c2ccccc2)n1 | – | inconclusive: 50.1 µM [inhibitor, partial curve, poor fit] |
| COc1ccc([C@@H]2CC=C(C(=O)O)[C@H](c3ccc(F)cc3)N2S(=O)(=O)c2ccc(Cl)cc2)cc1 | – | inconclusive: 89.1 µM [inhibitor, single point] |
| COc1cccc(C2OCC(C)(C)n3c(-c4ccccc4)c4c(=O)n(C)c(=O)n(C)c4c32)c1O (stereo unspecified) | – | active: 11.2 µM |
| C=CC[n+]1c(C)ccc2ccc(C)cc21 | – | inconclusive: 50.1 µM [inhibitor, partial curve, poor fit] |
| OC[C@@H]1CN(Cc2ccc(F)cc2)C[C@H](n2cnc3c(NCc4ccc(F)cc4)ncnc32)O1 | – | inconclusive: 100 µM [inhibitor, single point] |
| Cc1ccc(C(=O)N/N=C2/CC(=O)CC(C)(C)C2)cc1Br | inactive: 31.3% | – |
| O=C(Nc1nc2ccccc2[nH]1)c1cc(F)cc(F)c1 | inactive: 15.8% | – |
| CCOC(=O)N1CCN([C@H]2CS(=O)(=O)C[C@@H]2S(=O)(=O)c2ccccc2)CC1 | inconclusive: -30.3% [inhibitor] | – |
| Cn1cnc([N+](=O)[O-])c1Oc1cccc2ccccc12 | inactive: -4.66% | – |
| Clc1cnc(N/N=C/c2ccncc2)c(Cl)c1 | – | inconclusive: 112 µM [inhibitor, single point] |

| SMILES | activity change, negative = inhibition | Potency |
| --- | --- | --- |
| Cc1ccc(CNC(=O)c2ccccc2NS(=O)(=O)c2ccc(Cl)nc2)cc1 | – | inconclusive: 50.1 µM [inhibitor, partial curve, poor fit] |
| COc1ccccc1-c1oc2ccccc2c1C#CC1(N)CCCCC1 | – | inconclusive: 50.1 µM [inhibitor, partial curve, poor fit] |
| CC(NC(=O)CSCC(N)=O)c1ccc(Cl)s1 (stereo unspecified) | – | inconclusive: 0.355 µM [inhibitor, full curve, poor fit] |
| Cc1[nH]c2ccccc2c1C(=O)CSc1nnnn1CC(C)C | inactive: 0.0238% | – |
| O=C1c2cc([N+](=O)[O-])cc3cc([N+](=O)[O-])cc(c23)C(=O)N1c1ccccn1 | – | inconclusive: 44.7 µM [inhibitor, single point] |
| Cc1ccc(CN2CCCCCNC(=O)[C@@H]3CCC[C@@H]32)o1 | inactive: 78.7% | – |
| CC(=O)NS(=O)(=O)c1ccc(N=c2ssc3c2-c2cc(C)c(C)cc2NC3(C)C)cc1 | – | inconclusive: 56.2 µM [inhibitor, partial curve, poor fit] |
| COc1ccccc1CNC(=O)COC(=O)CSc1ccc(Cl)cc1 | – | inconclusive: 112 µM [inhibitor, single point] |
| Cc1cc(C=O)sc1[B-](F)(F)F | – | inconclusive: 0.282 µM [inhibitor, full curve, poor fit] |
| CCn1nccc1C(=O)N1CCC(CCOc2ccc(F)cc2)C1 (stereo unspecified) | inactive: 18.3% | – |
| Cc1ccc(Oc2nc(CN3CCOCC3)nc3sc4c(c23)CCC(C)C4)cc1 (stereo unspecified) | inactive: -0.495% | – |
| CC1=C(C#N)C(O)(C(F)(F)F)C(=O)N1 (stereo unspecified) | inactive: 1.68% | – |
| COc1ccc(S(=O)(=O)NCC(c2ccc3c(c2)OCO3)N2CCN(C)CC2)cc1OC (stereo unspecified) | – | inconclusive: 112 µM [inhibitor, partial curve, poor fit] |
| CCN1CCCC1CNS(=O)(=O)c1ccc(Br)cc1 (stereo unspecified) | – | inconclusive: 44.7 µM [inhibitor, partial curve, poor fit] |
| COc1cccc(-n2c(C)cc(/C=C3/C(=N)N4C(=NC3=O)SN=C4S(C)(=O)=O)c2C)c1 | – | inconclusive: 20 µM [inhibitor, partial curve] |
| CCC(Sc1ccccc1C(=O)O)C(=O)O (stereo unspecified) | – | inconclusive: 35.5 µM [inhibitor, partial curve, poor fit] |
| CCOC(=O)CSC1=C(C#N)C(c2ccc(Cl)cc2)C(C(=O)OC)C(=O)N1 (stereo unspecified) | – | inconclusive: 39.8 µM [inhibitor, partial curve] |
| CC(C)c1nc(N2CCN(C(=O)c3ccco3)CC2)c2c3c(sc2n1)CCCC3 | – | inconclusive: 39.8 µM [inhibitor, partial curve] |
| Cc1cc(C)nc(N/N=C/c2ccccc2OCC(=O)O)n1 | inactive: 11.7% | – |
| COc1cc(/C=N/N=C(N)N)ccc1OCc1ccccc1Cl | – | inconclusive: 50.1 µM [inhibitor, partial curve, poor fit] |
| CN1CC[C@H]2CN(C(=O)Nc3ccccc3-c3ccccc3)C[C@H]21 | inactive: 33.6% | – |
| COC(=O)C(NC(=O)c1ccccc1OC)(Nc1nc(C2CC2)cs1)C(F)(F)F (stereo unspecified) | – | inconclusive: 50.1 µM [inhibitor, partial curve, poor fit] |

Single records, from the list above.
CCn1nccc1C(=O)N1CCC(CCOc2ccc(F)cc2)C1 (stereo unspecified) reads activity change, negative = inhibition: inactive: 18.3%
CCC(Sc1ccccc1C(=O)O)C(=O)O (stereo unspecified) reads Potency: inconclusive: 35.5 µM [inhibitor, partial curve, poor fit]

(continued)

| SMILES | activity change, negative = inhibition | Potency |
| --- | --- | --- |
| COC(=O)c1sc(C(=O)OC)c(C(=O)OC)c1C(=O)OC | inactive: -9.09% | – |
| O=C(c1ccco1)N1CC2(CC(c3ccc(Cl)cc3)=NO2)CN1Cc1ccc(Br)cc1 (stereo unspecified) | – | inconclusive: 15.8 µM [inhibitor, partial curve, poor fit] |
| O=C(/C=C/c1ccc(-c2ccc(Cl)cc2Cl)o1)c1ccc(Br)cc1 | – | active: 8.91 µM |
| N=C(N)SCc1ccc(Cl)c2ccccc12 | – | inconclusive: 89.1 µM [inhibitor, single point] |
| FC(F)(F)c1ccccc1Cc1c(-c2ccc(Cl)cc2)nc2ccc(Cl)cn12 | – | inconclusive: 44.7 µM [inhibitor, partial curve, poor fit] |
| Cc1ccc(CN2CCC(c3nc4ccc(Cl)cc4[nH]3)CC2)cc1 | – | inconclusive: 35.5 µM [inhibitor, partial curve] |
| Cc1ccc(C(=O)/C=C/Nc2ccc3c(c2)OCO3)cc1 | – | inconclusive: 35.5 µM [inhibitor, single point] |
| COc1ccc(/C=C(/C#N)c2nc3ccccc3o2)cc1OC | – | inconclusive: 31.6 µM [inhibitor, partial curve, poor fit] |
| COc1ccc(N2CCN(Cc3nc(N)nc(Nc4ccc(C)c(Cl)c4)n3)CC2)cc1 | inactive: -22.2% | – |
| O=C(NCCN1C(=O)S/C(=C\c2cccnc2)C1=O)c1cc(S(=O)(=O)N2CCOCC2)ccc1F | – | inconclusive: 39.8 µM [inhibitor, partial curve, poor fit] |
| c1ccc(-n2nccc2CN2CCC3(CCNCC3)C2)cc1 | inactive: 33.8% | – |
| COc1cc(Cl)c(S(=O)(=O)NCCc2c(C)[nH]c3c(C)cccc23)cc1Cl | – | inconclusive: 56.2 µM [inhibitor, partial curve, poor fit] |
| COc1cccc(C(=O)NCC(c2cccs2)N2CCc3ccccc32)c1 (stereo unspecified) | – | inconclusive: 50.1 µM [inhibitor, partial curve, poor fit] |
| COc1cc(C2C(C#N)=C(N)Oc3c2ccc2ccccc32)ccc1OCC(=O)Nc1ccccc1C (stereo unspecified) | inactive: -2.06% | – |
| CC(C)(C)C1CCC(C(=O)N/N=C/c2ccc(Cl)s2)CC1 (stereo unspecified) | – | inconclusive: 0.199 µM [inhibitor, full curve, poor fit] |
| O=C(O)c1cc(=O)c2ccccc2o1 | – | inconclusive: 44.7 µM [inhibitor, partial curve, poor fit] |
| O=C(O)C1C2CCC(O2)C1C(=O)Nc1cnn(Cc2ccccc2)c1 (stereo unspecified) | – | inconclusive: 31.6 µM [inhibitor, partial curve, poor fit] |
| Cc1[nH]nc2c1C(c1ccc(-c3ccc(Cl)cc3)o1)C(C#N)=C(N)O2 (stereo unspecified) | – | inconclusive: 50.1 µM [inhibitor, partial curve, poor fit] |
| Cc1cc(C)c(NC(=O)c2cc(S(=O)(=O)N3CCC4(CC3)OCCO4)ccc2F)c(C)c1 | inactive: -2.94% | – |
| Cc1ccc(-c2nc(NC(=O)CSc3cc(C)c4ccccc4n3)ns2)cc1 | – | inactive |
| CCOC(=O)C(=NCCCN(C)C)NNc1cc(C(F)(F)F)ccc1Cl | – | inconclusive: 7.94 µM [inhibitor, full curve, poor fit] |
| CC(C)=CC1C(C(=O)Nc2ccc(C)cc2C)C1(C)C (stereo unspecified) | – | inconclusive: 1.78 µM [inhibitor, full curve, poor fit] |
